Results are given in words; binding and its absence hold for the method and conditions named. Binding seen in cells or lysates may run through a third protein. Here binding means that the protein was enriched with, or labelled near, the bait; the list need not be complete.
B1: MYB-binding protein 1A (MYBBP1A) (protein, UniProt Q9BQG0 1-1328)
chain: MESRDPAQPMSPGEATQSGARPADRYGLLKHSREFLDFFWDIAKPEQETRLAATEKLLEYLRGRPKGSEMKYALKRLITGLGVGRETARPCYSLALAQLLQSFEDLPLCSILQQIQEKYDLHQVKKAMLRPALFANLFGVLALFQSGRLVKDQEALMKSVKLLQALAQYQNHLQEQPRKALVDILSEVSKATLQEILPEVLKADLNIILSSPEQLELFLLAQQKVPSKLKKLVGSVNLFSDENVPRLVNVLKMAASSVKKDRKLPAIALDLLRLALKEDKFPRFWKEVVEQGLLKMQFWPASYLCFRLLGAALPLLTKEQLHLVMQGDVIRHYGEHVCTAKLPKQFKFAPEMDDYVGTFLEGCQDDPERQLAVLVAFSSVTNQGLPVTPTFWRVVRFLSPPALQGYVAWLRAMFLQPDLDSLVDFSTNNQKKAQDSSLHMPERAVFRLRKWIIFRLVSIVDSLHLEMEEALTEQVARFCLFHSFFVTKKPTSQIPETKHPFSFPLENQAREAVSSAFFSLLQTLSTQFKQAPGQTQGGQPWTYHLVQFADLLLNHSHNVTTVTPFTAQQRQAWDRMLQTLKELEAHSAEARAAAFQHLLLLVGIHLLKSPAESCDLLGDIQTCIRKSLGEKPRRSRTKTIDPQEPPWVEVLVEILLALLAQPSHLMRQVARSVFGHICSHLTPRALQLILDVLNPETSEDENDRVVVTDDSDERRLKGAEDKSEEGEDNRSSESEEESEGEESEEEERDGDVDQGFREQLMTVLQAGKALGGEDSENEEELGDEAMMALDQSLASLFAEQKLRIQARRDEKNKLQKEKALRRDFQIRVLDLVEVLVTKQPENALVLELLEPLLSIIRRSLRSSSSKQEQDLLHKTARIFTHHLCRARRYCHDLGERAGALHAQVERLVQQAGRQPDSPTALYHFNASLYLLRVLKGNTAEGCVHETQEKQKAGTDPSHMPTGPQAASCLDLNLVTRVYSTALSSFLTKRNSPLTVPMFLSLFSRHPVLCQSLLPILVQHITGPVRPRHQACLLLQKTLSMREVRSCFEDPEWKQLMGQVLAKVTENLRVLGEAQTKAQHQQALSSLELLNVLFRTCKHEKLTLDLTVLLGVLQGQQQSLQQGAHSTGSSRLHDLYWQAMKTLGVQRPKLEKKDAKEIPSATQSPISKKRKKKGFLPETKKRKKRKSEDGTPAEDGTPAATGGSQPPSMGRKKRNRTKAKVPAQANGTPTTKSPAPGAPTRSPSTPAKSPKLQKKNQKPSQVNGAPGSPTEPAGQKQHQKALPKKGVLGKSPLSALARKKARLSLVIRSPSLLQSGAKKKAQVRKAGKP

By UniProt entry, the sequences of proteins in these tests, tags left out.
UniProt Q8N6T7: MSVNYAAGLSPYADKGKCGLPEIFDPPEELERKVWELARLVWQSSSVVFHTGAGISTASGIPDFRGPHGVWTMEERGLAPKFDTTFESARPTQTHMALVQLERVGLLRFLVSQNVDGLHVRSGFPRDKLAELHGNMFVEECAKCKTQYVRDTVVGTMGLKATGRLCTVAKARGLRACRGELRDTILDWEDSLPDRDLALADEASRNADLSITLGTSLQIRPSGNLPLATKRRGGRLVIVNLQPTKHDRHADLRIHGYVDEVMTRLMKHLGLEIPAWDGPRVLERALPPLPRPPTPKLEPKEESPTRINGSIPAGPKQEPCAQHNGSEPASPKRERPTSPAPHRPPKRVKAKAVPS
UniProt O60264: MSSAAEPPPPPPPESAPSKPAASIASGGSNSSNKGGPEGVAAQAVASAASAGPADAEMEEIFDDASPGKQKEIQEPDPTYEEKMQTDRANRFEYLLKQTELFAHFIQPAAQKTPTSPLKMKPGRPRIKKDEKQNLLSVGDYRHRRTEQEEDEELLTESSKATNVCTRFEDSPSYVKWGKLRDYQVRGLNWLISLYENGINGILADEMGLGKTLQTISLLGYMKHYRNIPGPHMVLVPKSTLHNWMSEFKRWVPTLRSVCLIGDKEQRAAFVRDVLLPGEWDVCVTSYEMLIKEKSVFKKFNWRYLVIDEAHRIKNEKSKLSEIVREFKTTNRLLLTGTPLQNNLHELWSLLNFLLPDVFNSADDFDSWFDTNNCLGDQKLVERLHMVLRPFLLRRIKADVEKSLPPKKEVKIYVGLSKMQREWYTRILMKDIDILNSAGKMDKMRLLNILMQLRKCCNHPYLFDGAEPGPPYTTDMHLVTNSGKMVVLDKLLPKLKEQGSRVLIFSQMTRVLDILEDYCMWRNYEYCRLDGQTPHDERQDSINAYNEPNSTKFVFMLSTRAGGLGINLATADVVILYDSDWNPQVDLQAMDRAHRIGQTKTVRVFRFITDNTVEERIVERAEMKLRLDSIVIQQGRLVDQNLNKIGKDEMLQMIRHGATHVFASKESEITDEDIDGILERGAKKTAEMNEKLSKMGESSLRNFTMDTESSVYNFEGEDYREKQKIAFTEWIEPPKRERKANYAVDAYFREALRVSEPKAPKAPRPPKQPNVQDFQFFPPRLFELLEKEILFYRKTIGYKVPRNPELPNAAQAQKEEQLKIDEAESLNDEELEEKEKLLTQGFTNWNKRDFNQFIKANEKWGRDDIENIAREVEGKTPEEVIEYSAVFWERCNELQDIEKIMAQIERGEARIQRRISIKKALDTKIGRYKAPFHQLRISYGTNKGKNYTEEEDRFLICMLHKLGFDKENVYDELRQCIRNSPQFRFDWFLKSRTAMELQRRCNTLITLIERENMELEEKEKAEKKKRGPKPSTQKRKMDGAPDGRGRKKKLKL

Biological target: Flag-tagged wild type SIRT6 (human) (UniProt Q8N6T7)
Experiment: affinity purification with mass spectrometry; anti-Flag immunoprecipitate of Flag-SIRT6 from HEK293 cells run on SDS-PAGE, Coomassie-stained bands excised and sequenced by LC MS/MS, MASCOT search

Molecule | binding
SMARCA5 (from UniProt O60264 1-1052) | binds
B1 | binds
